Laboratory results: PubChem BioAssay AID652259 (Drosophila RNAi Screening Center, 2013)
Aim: 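Knock-downs that push a Wingless-driven reporter up or down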 (primary screen). Cell system: Drosophila clone 8 imaginal disc epithelial cells. Reagent: long dsRNA against Drosophila genes. Treatment: pathway stimulated by co-transfected Wingless expression plasmid. Measured: 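Dual luciferase reads per well after Wingless plasmid stimulation: reporter firefly light and Renilla control light; activity is firefly divided by Renilla, a ratio not deposited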. Direction: firefly reporter light: higher = more Wg reporter light, before normalisation; Renilla control light: higher = more transfected or surviving cells. Hit rule: 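Strong candidates differ from their plate mean by at least two out of four per-plate statistical tests; weak candidates meet just one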. Calls: active = candidate regulator (raises or lowers reporter); inactive = not a candidate.
The deposit covers about 22,000 reagents; shown is a random part of those that have a named target and a result. Of all reagents, 233 (1.1%) got an active call. 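Light values are raw, unnormalised plate reads; the ratio scores behind the reporter calls were not deposited.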 Names joined by + are all predicted targets of the reagent. The record does not give: the amount of reagent, the time to read-out, the dose of the treatment.

gene knocked down,dsRNA,"firefly reporter light, replicate 1","firefly reporter light, replicate 2","Renilla control light, replicate 1","Renilla control light, replicate 2",call
Vtld + CG42529,DRSC10102,15990,,5140,,inactive
CG15754,DRSC19719,15223,,7687,,inactive
Cyp6a13,DRSC07375,5292,,2333,,inactive
Acp63F,DRSC08137,6553,,2899,,inactive
Tsp,DRSC02144,10387,,4147,,inactive
Tsp,DRSC02145,3008,6629,1200,2653,inactive
CysRS,DRSC05948,10545,,2757,,inactive
Pitslre,DRSC11874,9542,,1868,,inactive
CG17192,DRSC15186,6212,,2748,,inactive
Mur2B,DRSC18545,20978,,18809,,inactive
Mur2B,DRSC18546,28141,,18693,,inactive
side,DRSC14523,10285,7.18e5,4115,3.22e5,inactive
side,DRSC14716,9559,,3467,,inactive
side,DRSC14717,7293,,3339,,inactive
side,DRSC14718,6832,,3287,,inactive
side,DRSC14721,12848,,4208,,inactive
Acp29AB,DRSC01857,2026,8972,722,3299,inactive
CG4866,DRSC06899,5680,,2922,,inactive
Ctps,DRSC09342,3114,,1853,,inactive
Ctps,DRSC10728,5123,,1737,,inactive
Ctps,DRSC10729,3825,,3284,,inactive
sesB,DRSC20371,18913,,7451,,inactive
CG8773,DRSC16444,8315,,3111,,inactive
Pura,DRSC08891,3947,,1146,,inactive
Pura,DRSC10862,934,7113,656,3031,inactive
Pura,DRSC10864,1093,8950,791,2857,inactive
Pura,DRSC10865,1500,6171,1041,3127,inactive
Pura,DRSC10866,1920,7866,1832,5056,inactive
Vajk3,DRSC01883,9090,,3049,,inactive
Ddx56,DRSC20567,10423,,8105,,inactive
CG13502,DRSC04147,2436,7657,571,2500,inactive
Iyd,DRSC10614,7223,,2765,,inactive
Iyd,DRSC10615,7048,,3417,,inactive
CG11699,DRSC19419,24439,,10180,,inactive
CG11251,DRSC09825,5609,,3178,,inactive
SkpD,DRSC22208,8.67e5,8.31e5,2.15e5,2.27e5,inactive
pyd3,DRSC15459,6598,,2064,,inactive
pyd3,DRSC21640,3.87e5,4.48e5,2.12e5,1.54e5,inactive
CG43666 + CG43667 + CG43668,DRSC03829,25303,,12317,,inactive
CG43666 + CG43667 + CG43668,DRSC04233,3072,6364,1195,2764,inactive
CG14424,DRSC18472,11821,,11589,,inactive
Dsk,DRSC12347,9370,,3401,,inactive
trc,DRSC11406,21127,,5655,,inactive
CG43308,DRSC05893,22528,,14461,,inactive
CG14949,DRSC08408,5953,,2614,,inactive
barr,DRSC03488,2269,11552,321,2008,inactive
Wdr92,DRSC10187,5158,,2694,,inactive
pcs,DRSC07042,9261,,4691,,inactive
CG6071,DRSC10579,5788,,2070,,inactive
CG15822,DRSC08482,5961,,2873,,inactive
CG15822,DRSC08483,4908,,2248,,inactive
CSN1a,DRSC01951,3424,6698,1254,3031,inactive
sinah,DRSC09910,12868,,5520,,inactive
sinah,DRSC22181,5.82e5,4.79e5,2.23e5,1.92e5,inactive
gNacalpha,DRSC00654,2284,7957,1004,2869,inactive
scf,DRSC08735,4698,,2408,,inactive
gw,DRSC17135,4803,8102,896,1712,inactive
gw,DRSC17160,17224,,5288,,inactive
COX6B,DRSC19590,3811,8739,1269,3716,inactive
Vps13D,DRSC09818,5136,,2112,,inactive
Vps13D,DRSC09819,6439,,2298,,inactive
CG31195,DRSC13440,2890,,1595,,inactive
CG9029,DRSC03129,2642,8264,1210,2340,inactive
Gr57a,DRSC06401,4704,,2438,,inactive
Zw10,DRSC18793,3809,7401,1505,2297,inactive
Mfe2,DRSC19869,3243,8832,1209,2880,inactive
PPYR1,DRSC19612,16809,,7389,,inactive
CG14454,DRSC11711,19904,,3453,,inactive
trbd,DRSC16494,5175,,2681,,inactive
CG2211,DRSC08559,4252,,1925,,inactive
CG30369,DRSC21996,8.20e5,8.75e5,3.42e5,3.95e5,inactive
Reph,DRSC00634,20409,,10108,,inactive
Reph,DRSC22031,6.41e5,3.73e5,2.35e5,1.85e5,inactive
